Article PMC11277477

Tests used:
[1] = target: T1, GST-Adh recombinant protein (E. histolytica); experiment: pull-down; GST-tagged bait bound to glutathione-Sepharose (200 μg) incubated with total trophozoite lysate (2 mg), 4 h, 4 °C; bound proteins detected by western blot with specific antibodies; only the target purified
T1 sequence: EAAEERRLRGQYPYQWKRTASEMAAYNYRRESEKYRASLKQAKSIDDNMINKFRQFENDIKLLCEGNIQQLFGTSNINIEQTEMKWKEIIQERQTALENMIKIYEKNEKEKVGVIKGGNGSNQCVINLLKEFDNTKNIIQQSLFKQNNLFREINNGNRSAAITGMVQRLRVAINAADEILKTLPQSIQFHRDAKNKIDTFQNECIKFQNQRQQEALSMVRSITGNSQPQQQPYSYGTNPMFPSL

[2] = target: T2, GST-Linker recombinant protein (E. histolytica); experiment: as above
T2 sequence: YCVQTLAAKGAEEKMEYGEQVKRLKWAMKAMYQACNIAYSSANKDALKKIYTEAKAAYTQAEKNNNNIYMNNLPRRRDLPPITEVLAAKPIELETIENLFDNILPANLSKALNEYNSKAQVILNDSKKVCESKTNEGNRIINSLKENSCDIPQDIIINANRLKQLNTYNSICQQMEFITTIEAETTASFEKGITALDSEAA

Substance	binding [1]	binding [2]
EhHSP70 (EHI_061640)	binds	
EhRabB (enzyme)		binds

Results are given in words; binding and its absence hold for the method and conditions named. In cells and extracts the contact can be indirect. A result given as binding can be weak or reduced; the word gives no strength. Where a sequence is shown, tags or fusion partners need not be part of it.
